Some results come without the dose or concentration used.
Key:
MCF-7 = assay: Cell viability (MTT) assay, 24-h IC50, MCF-7; format: cell-based, human
MIA-PaCa-2 = assay: Cell viability (MTT) assay, 24-h IC50, MIA-PaCa-2; format: cell-based, human; conditions: for Ratio parent NSAID/derivative of 24-h IC50: MIA-PaCa-2
MDA-MB231 = assay: Cell viability (MTT) assay, 24-h IC50, MDA-MB231; format: cell-based, human
SW480 = assay: Cell viability (MTT) assay, 24-h IC50, SW480; format: cell-based, human
BxPC-3 = assay: Cell viability (MTT) assay, 24-h IC50, BxPC-3
HT29 = assay: Cell viability (MTT) assay, 24-h IC50, HT29; format: cell-based, human; conditions: for Ratio parent NSAID/derivative of 24-h IC50: HT29

Structure (SMILES)	Ratio parent NSAID/derivative of 24-h IC50 (MCF-7)	Ratio parent NSAID/derivative of 24-h IC50 (MIA-PaCa-2)	Ratio parent NSAID/derivative of 24-h IC50 (MDA-MB231)	Ratio parent NSAID/derivative of 24-h IC50 (SW480)	Ratio parent NSAID/derivative of 24-h IC50 (BxPC-3)	Ratio parent NSAID/derivative of 24-h IC50 (HT29)	Fold Enhancement (MCF-7; IC50 VPA vs phospho-VPA)	Fold Enhancement (MIA-PaCa-2; IC50 VPA vs phospho-VPA, MIA PaCa2)	Fold Enhancement (MDA-MB231; IC50 VPA vs phospho-VPA)	Fold Enhancement (SW480; IC50 VPA vs phospho-VPA)	Fold Enhancement (BxPC-3; IC50 VPA vs phospho-VPA)	Fold Enhancement (HT29; IC50 VPA vs phospho-VPA, HT-29)
CCOP(=O)(OCC)OCC(COC(=O)c1ccccc1OC(C)=O)OP(=O)(OCC)OCC (stereo not drawn) [Glycero-phospho-aspirin II]	>8	>8	>6	>12	>12	100	–	–	–	–	–	–
CCOP1(=O)OCC(COC(=O)c2ccccc2OC(C)=O)O1 (stereo not drawn) [Glycero-phospho-aspirin I]	>63	>7	>10	>12	>32	74	–	–	–	–	–	–
CCCC(CCC)C(=O)Oc1ccc(COP(=O)(OCC)OCC)cc1 [Phosoho-VPA]	–	–	–	–	–	–	35	35	136	62	47	245
CCOP(=O)(OCC)OCCCCOC(=O)C(C)c1ccc(-c2ccccc2)c(F)c1 (stereo not drawn) [Phospho-Flurobiprofen]	22	9	48	12	24	21	–	–	–	–	–	–
CCOP(=O)(OCC)OCCCCOC(=O)CC1=C(C)/C(=C/c2ccc(SC)cc2)c2ccc(F)cc21 [Phospho-sulindac II]	30	11	30	12	15	17	–	–	–	–	–	–
CCOP(=O)(OCC)OCCCCOC(=O)CC1=C(C)/C(=C/c2ccc([S+](C)[O-])cc2)c2ccc(F)cc21 (stereo not drawn) [Phospho-sulindac I]	18	12	31	9	8	18	–	–	–	–	–	–

Source: patent US8236820B2, “Anti-inflammatory compounds and uses thereof” (priority 2007, dated 2012)
